PubChem BioAssay AID602196, INSERM, 2012
In all, the deposit lists about 23,000 reagents; below is a random part of them. 455 of them (2%) count as active. 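Active includes both protection and sensitisation; some change values fall well beyond the stated -50 to +50 range.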 Not stated in the record: the amount of reagent.

Assay: 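Genes whose knock-down alters cisplatin killing of lung cancer cells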
Cell system: human A549 lung cancer cells
Reagent: siRNA pair against human genes
Duration: 48 h transfection before cisplatin; time from cisplatin to read-out not stated
Challenge: cisplatin at a dose killing half of control-siRNA cells; exact dose and duration not given
Measured: 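Shift in cisplatin death relative to control siRNA, from -50 (all cells die) to +50 (no cells die); siRNAs harmful on their own scored 0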
Scale: two-siRNA summed score (-2 to +2): higher = both siRNAs protect from cisplatin killing; -2 means both sensitise; mean protection from cisplatin (shift in death) and protection from cisplatin (shift in death), siRNA C and protection from cisplatin (shift in death), siRNA D: higher = protection from cisplatin killing
Active means: 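siRNAs harmful alone (LDH or WST-1) get 0; others get +1 for less and -1 for more cisplatin killing; genes are active when the two siRNAs give the same sign, summing to ±2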
Meaning of the calls: active = both siRNAs shift cisplatin killing the same way; inactive = no consistent shift, or siRNA harmful alone

The first 3 records as a preview:
Gene | two-siRNA summed score (-2 to +2) | mean protection from cisplatin (shift in death) (%) | protection from cisplatin (shift in death), siRNA C (%) | protection from cisplatin (shift in death), siRNA D (%) | Call
RPS12 (GeneID 6206) | 0 | 20.9 | 17.5 | 24.4 | inactive
PLA2G1B (GeneID 5319) | -1 | 40.1 | -10.9 | 91.2 | inactive
LOC441309 | 0 | 1.3 | 7.7 | -5.1 | inactive

The listing, repeating the preview:
Gene | two-siRNA summed score (-2 to +2) | mean protection from cisplatin (shift in death) (%) | protection from cisplatin (shift in death), siRNA C (%) | protection from cisplatin (shift in death), siRNA D (%) | Call
RPS12 (GeneID 6206) | 0 | 20.9 | 17.5 | 24.4 | inactive
PLA2G1B (GeneID 5319) | -1 | 40.1 | -10.9 | 91.2 | inactive
LOC441309 | 0 | 1.3 | 7.7 | -5.1 | inactive
OR2D2 (GeneID 120776) | -1 | 11.8 | 38.4 | -14.9 | inactive
HABP4 (GeneID 22927) | 0 | -3.1 | -1.2 | -5 | inactive
SLC13A1 (GeneID 6561) | 0 | 13.4 | 19.2 | 7.7 | inactive
ARAP1 (GeneID 116985) | 0 | 3.5 | -2 | 9.1 | inactive
PCDHGA12 (GeneID 26025) | 2 | 20.9 | 20.8 | 21 | active
JAZF1 (GeneID 221895) | -1 | -7.6 | -11.3 | -3.9 | inactive
TNFRSF9 (GeneID 3604) | 0 | 5 | 8 | 2.1 | inactive
AQP5 (GeneID 362) | -1 | -8.8 | 3.5 | -21.1 | inactive
PHYHIPL (GeneID 84457) | 0 | 9.9 | 8.1 | 11.6 | inactive
BOK (GeneID 666) | 0 | 2.6 | 2.6 | 2.5 | inactive
GSTO2 (GeneID 119391) | -1 | -2.6 | 11 | -16.1 | inactive
FAM171A1 (GeneID 221061) | 0 | -0.6 | -14.7 | 13.4 | inactive
SLC4A9 (GeneID 83697) | 2 | 20.1 | 15.6 | 24.6 | active
SAC3D1 (GeneID 29901) | 0 | 0 | -1.1 | 1.1 | inactive
ZNF569 (GeneID 148266) | 0 | 4.3 | 5.5 | 3.1 | inactive
CLDN9 (GeneID 9080) | 0 | 9.1 | -5.8 | 24 | inactive
RASA2 (GeneID 5922) | 0 | 4.6 | -2.4 | 11.6 | inactive
DAZ3 (GeneID 57054) | 0 | 6.2 | 5 | 7.4 | inactive
FHDC1 (GeneID 85462) | 0 | 6.1 | 14.2 | -2.1 | inactive
GNAO1 (GeneID 2775) | 1 | 7.4 | 22 | -7.2 | inactive
KPNA3 (GeneID 3839) | 0 | 14.7 | 15.2 | 14.1 | inactive
SERINC3 (GeneID 10955) | 1 | 10.7 | 8.3 | 13.1 | inactive
IMMP1L (GeneID 196294) | 0 | -5.7 | 3.4 | -14.7 | inactive
NT5M (GeneID 56953) | 0 | -1 | 3.9 | -5.9 | inactive
LOC441501 | 0 | 6.2 | 5.5 | 6.8 | inactive
RALBP1 (GeneID 10928) | 1 | 10.9 | 5.6 | 16.1 | inactive
STAM (GeneID 8027) | 1 | 12.3 | 3.7 | 20.8 | inactive
SH3BP1 (GeneID 23616) | 0 | -1.9 | -11.8 | 8.1 | inactive
SNRPF (GeneID 6636) | 0 | 16.1 | -4.9 | 37.2 | inactive
ITFG2 (GeneID 55846) | 0 | -11.2 | -8.5 | -13.8 | inactive
HMG20A (GeneID 10363) | 0 | 34.1 | 31.1 | 37.2 | inactive
NME9 (GeneID 347736) | 0 | 3.6 | 31.3 | -24.2 | inactive
FOLR1 (GeneID 2348) | -1 | -24.8 | -20.2 | -29.4 | inactive
CYP1B1 (GeneID 1545) | 0 | -12.6 | -11.3 | -13.9 | inactive
ZNG1C (GeneID 445571) | 0 | 2.4 | -3.7 | 8.4 | inactive
H2AZ1 (GeneID 3015) | 0 | 1 | -2.6 | 4.6 | inactive
